From PubChem BioAssay AID504582 (Broad Institute, 2011)
The whole screen tested about 340,000 compounds, of which about 2,300 (0.68%) were called active. This list was built around the results that the source calls inconclusive (neither active nor inactive); the mix of calls is not that of the screen. Cut-off read from the data, not from the text of the source: active = growth rescue above about 28% (passing the limit was not always enough); inconclusive = no clear call, values can overlap the other calls.

Assay: rescue of yeast from PfHsp40 toxicity, primary screen, S. cerevisiae, ATP luminescence (AID 504582);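 note: yeast W303a lacking pdr1 and pdr3 grown in galactose medium; growth measured after three days at 30 °C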
Conditions: S. cerevisiae expressing PfHsp40, growth rescue, at 12.5 µM, stronger effect = higher value

Compound | growth rescue
O=C1C2(Cl)C3(Cl)C4(Cl)C(Cl)(Cl)C5(Cl)C3(Cl)C1(Cl)C5(Cl)C24Cl (stereo not given) | active: 78.8%
O=C(NNC(=O)C1CCC1)c1ccc(Cl)cc1 | inactive: -1.93%
CCCOc1ccc(-c2c(=O)n(O)c3ccccc3[n+]2[O-])cc1 | inconclusive: 30.5%
Cc1nc(SCC(=O)NCCc2ccccc2)n[nH]1 | inconclusive: 37.5%
CN(CC(=O)NCCc1ccc(Cl)cc1)S(=O)(=O)c1cccs1 | inconclusive: 27.2%
Cc1ccc2c(CC(=O)O)coc2c1 | inconclusive: 36.8%
O=C1NC(c2ccccc2)(C(F)(F)F)C(=O)N1Cc1cccnc1 (stereo not given) | inconclusive: 39.7%
CN(C)c1ccc(CNc2ncnc3sccc23)cc1 | inconclusive: 27.6%
CN1CCN(C(=O)c2cccc(-c3cc(O)c4ncccc4c3)c2)CC1 | inconclusive: 26.1%
COc1cccc(/C=C2\SC(=S)N(NS(=O)(=O)c3ccc(C)cc3)C2=O)c1OC | inconclusive: 28.4%
COc1ccc(N=Nc2c(N)nn(C)c2N)cc1 | inactive: 1.48%
C=C1C(=O)O[C@@H]2[C@H]3O[C@]3(C)CC/C=C(\C)CC[C@@H]12 | inactive: 0.726%
O=C(NCCCn1ccnc1)c1ccc(-c2cccc(Cl)c2Cl)o1 | inconclusive: 31.1%
O=C(O)CCC(=O)Nc1ccc(C(=O)OCC(=O)c2ccc(Cl)cc2)cc1 | inactive: 0.15%
CC(=O)N1CCC(O)(c2cccc(C(F)(F)F)c2)CC1 | inconclusive: 31.9%
COc1ccc(N2CCN(C(=O)Cc3nn(C)c(=O)c4ccccc34)CC2)cc1 | inconclusive: 52.1%
O=C(NCc1ccccc1)c1nc[nH]c1C(=O)NCc1ccccc1 | inconclusive: 44%
O=Cc1cc(N=Nc2cccc(C(=O)O)c2)ccc1O | inconclusive: 28%
O=C(NC1=NCCS1)c1cccc2ccccc12 | inconclusive: 36.8%
CC(C)NC(=S)N/N=C1\CCCCC1C1CCCCC1 (stereo not given) | inactive: 0.131%
COc1ccc(N2CCN(CCCNC(=O)C3(S(=O)(=O)c4ccc(Cl)cc4)CC3)CC2)cc1 | inconclusive: 75.4%
CN1CCc2ccccc2C1Cc1ccccc1NC(=O)c1sc2ccccc2c1Cl (stereo not given) | inconclusive: 27.7%
Cc1cc(Cl)ccc1OCCCC(=O)N/N=C/c1cccc([N+](=O)[O-])c1 | inactive: 0.771%

Sorted by heavy-atom count (low to high): some entries from above
Compound | growth rescue
C=C1C(=O)O[C@@H]2[C@H]3O[C@]3(C)CC/C=C(\C)CC[C@@H]12 | inactive: 0.726%
CN(C)c1ccc(CNc2ncnc3sccc23)cc1 | inconclusive: 27.6%
O=C(O)CCC(=O)Nc1ccc(C(=O)OCC(=O)c2ccc(Cl)cc2)cc1 | inactive: 0.15%

Following part:

Compound | growth rescue
COCCCNC(=O)CN(c1cc(C(F)(F)F)ccc1Cl)S(C)(=O)=O | inconclusive: 25.5%
O=C(c1ccccc1F)N1CCN(c2cccc(C(F)(F)F)c2)CC1 | active: 121%
CC(=O)Oc1c(-c2ccc(Br)o2)oc2ccccc2c1=O | inconclusive: 85.8%
Cc1ccc(Cl)cc1N1CCN(C(=S)NCc2ccco2)CC1 | inconclusive: 225%
O=C(/C=C/c1cccs1)NC(=S)NNC(=O)Cc1cccs1 | inconclusive: 131%
CC1SCC(=NOCc2c(Cl)cccc2Cl)CS1 (stereo not given) | active: 59.1%
CCCCn1cnc2c(SCc3ccc(Br)cc3)nc(N)nc21 | inactive: 4.74%
Cc1ccc(C)c2c1cc(C)c1nnc(SCc3ccccn3)n12 | inactive: 0.759%
O=C(CCCN1CCC(n2c(=O)[nH]c3ccccc32)CC1)c1ccc(F)cc1 | inconclusive: 37.5%
OCc1cccc[n+]1Cc1ccccc1 | inconclusive: 27.6%
CCCNC(=O)CCC(=O)Nc1ncc(-c2ccc(C)cc2)n1C | inconclusive: 74.5%
COc1ccc(CCC(=O)NC(C)C)cc1 | active: 39.1%
CCn1nnnc1SCC(=O)NCc1ccco1 | inconclusive: 48.5%
O=C(CN(C(=O)CNS(=O)(=O)c1ccc(F)cc1)C1CCCC1)NCc1ccco1 | inconclusive: 54.7%
Cc1ccccc1NC(C)C(=O)N/N=C/c1ccccc1OCc1cccc(Br)c1 (stereo not given) | active: 35.2%
CN(C(=O)c1cccc(NC(=O)Cc2ccc(NC(=O)C3CCN(S(=O)(=O)c4cccc([N+](=O)[O-])c4)CC3)cc2)c1)C1CCC1 | inactive: 1.36%
COc1ccc(NS(=O)(=O)c2ccc(O)c(NC(=O)c3ccc(S(=O)(=O)N4CCCC4)cc3)c2)cc1 | inactive: -0.58%
Cc1cc(C)c(NC(=O)CN2CCN(C)CC2)c(C)c1 | inactive: -0.39%
Cc1ccc(CN2CCC(CNC(=O)Nc3ccccc3F)CC2)cc1 | active: 54.6%
O=C(NNC(=S)Nc1ccccc1)c1cc(Br)ccc1Cl | inconclusive: 25.4%
O=C(Cc1cccs1)Nc1nc(-c2ccc(F)cc2F)cs1 | inconclusive: 32.3%
N=c1sccn1CC(=O)Nc1cccc2ccccc12 | inconclusive: 27.5%
COc1ccc(Cl)cc1NC(=O)c1cc(-c2ccc(C)cc2O)n[nH]1 | inconclusive: 25.1%

An excerpt of these results, as tab-separated lines:
Compound	growth rescue
CC1SCC(=NOCc2c(Cl)cccc2Cl)CS1 (stereo not given)	active: 59.1%
CCCCn1cnc2c(SCc3ccc(Br)cc3)nc(N)nc21	inactive: 4.74%
Cc1ccc(C)c2c1cc(C)c1nnc(SCc3ccccn3)n12	inactive: 0.759%
O=C(CCCN1CCC(n2c(=O)[nH]c3ccccc32)CC1)c1ccc(F)cc1	inconclusive: 37.5%
OCc1cccc[n+]1Cc1ccccc1	inconclusive: 27.6%
CCCNC(=O)CCC(=O)Nc1ncc(-c2ccc(C)cc2)n1C	inconclusive: 74.5%
COc1ccc(CCC(=O)NC(C)C)cc1	active: 39.1%
CCn1nnnc1SCC(=O)NCc1ccco1	inconclusive: 48.5%
O=C(CN(C(=O)CNS(=O)(=O)c1ccc(F)cc1)C1CCCC1)NCc1ccco1	inconclusive: 54.7%
Cc1ccccc1NC(C)C(=O)N/N=C/c1ccccc1OCc1cccc(Br)c1 (stereo not given)	active: 35.2%
CN(C(=O)c1cccc(NC(=O)Cc2ccc(NC(=O)C3CCN(S(=O)(=O)c4cccc([N+](=O)[O-])c4)CC3)cc2)c1)C1CCC1	inactive: 1.36%
COc1ccc(NS(=O)(=O)c2ccc(O)c(NC(=O)c3ccc(S(=O)(=O)N4CCCC4)cc3)c2)cc1	inactive: -0.58%
Cc1cc(C)c(NC(=O)CN2CCN(C)CC2)c(C)c1	inactive: -0.39%
Cc1ccc(CN2CCC(CNC(=O)Nc3ccccc3F)CC2)cc1	active: 54.6%
O=C(NNC(=S)Nc1ccccc1)c1cc(Br)ccc1Cl	inconclusive: 25.4%
O=C(Cc1cccs1)Nc1nc(-c2ccc(F)cc2F)cs1	inconclusive: 32.3%
N=c1sccn1CC(=O)Nc1cccc2ccccc12	inconclusive: 27.5%

(list continues)

Compound | growth rescue
O=c1c2ccccc2nc(/C=C/c2ccccc2)n1-c1ccccc1O | inactive: 3.86%
O=C(NCCCSc1ccccc1)c1cc(Br)ccc1O | active: 196%
O=C(NCc1ccco1)C1CC2CCC1C2 (stereo not given) | inconclusive: 327%
CC(C)C1/C(=N/O)CC(c2ccccc2)NC1c1ccccc1 (stereo not given) | active: 49.3%
CC(C)(C)NC(=S)NNC(=O)c1ccccc1Cl | inconclusive: 30.3%
O=C(CCNC(=O)Cn1ccc2ccccc2c1=O)NCCN1CCc2ccccc2C1 | inconclusive: 51.2%
CCN(CC)S(=O)(=O)c1cccc(-c2n[nH]c(=S)n2/N=C/c2ccc(OC(F)F)cc2)c1 | inconclusive: 32.6%
N#Cc1c(N)nc(SCc2ccccc2)c(C#N)c1-c1ccco1 | inconclusive: 31.4%
CC1CCc2cc(F)cc3c(O)c(C(=O)NCC4CCCO4)c(=O)n1c23 (stereo not given) | inconclusive: 163%
CCOc1ccc(CCNC(=O)c2ccc(CS(=O)Cc3ccc(Cl)cc3)o2)cc1OCC (stereo not given) | inactive: 1.73%
COc1ccc(C(=O)OCC(=O)c2c[nH]c3ccccc23)c(OC)c1 | inactive: -0.177%
COC(=O)c1cn(NC(=O)c2cnccn2)c(=O)c2ccccc12 | inconclusive: 41.6%
Cc1ccc(NC(=O)c2cc(N3C(=O)C=CC3=O)ccc2N2CCOCC2)cc1Cl | active: 36.1%
Cc1ccccc1NCc1ccc(O)c2ncccc12 | inconclusive: 27.2%
O=[N+]([O-])c1ccc(-c2nc(-c3cccs3)c(-c3cccs3)[nH]2)cc1 | active: 438%
CCOC(=O)C1CCCN(C(=O)c2ccc([N+](=O)[O-])c(C)c2)C1 (stereo not given) | inconclusive: 37.4%
Cc1nn(Cc2c(F)c(F)c(F)c(F)c2F)c(C)c1NC(=O)c1ccc(COc2ccc(Cl)cc2Cl)o1 | inconclusive: 25.1%
CC(C)(O)CCCC(C)(O)c1ccc(C(=O)O)cc1O (stereo not given) | active: 54.9%
Cc1cc(C)c(C)c(S(=O)(=O)N2C(=S)NC(=O)C2C(C)C)c1C (stereo not given) | inconclusive: 273%
Cc1cc(=O)[nH]c2[nH][nH]c(=O)c12 | inconclusive: 49.5%
CCC(=O)Nc1ncc2c(n1)CC(c1ccco1)CC2=O (stereo not given) | inconclusive: 25.7%
O=C(N/N=C/c1ccc(O)c2ncccc12)c1cccc(Br)c1 | active: 105%
CCOC(=O)c1cc(OC(=O)c2ccccc2OC)n(-c2ccccc2)n1 | inconclusive: 62.9%

Compound | growth rescue
COC(=O)COc1ccc(S(=O)(=O)Nc2ccc(NC(C)=O)cc2)cc1 | inconclusive: 29.8%
CC(C)(C)c1ccc(OCC(=O)NNC(=S)NC(=O)c2ccccc2[N+](=O)[O-])c(Br)c1 | inconclusive: 60.3%
Cc1ccc(Cl)cc1NC(=S)N1CCC(c2ccccc2)C1 (stereo not given) | inconclusive: 28.6%
CCOc1ccc(NC(=O)c2ccccn2)cc1 | inactive: -2.5%
N#Cc1ccc(C(=O)N2CCN(c3ncccn3)CC2)cc1 | inconclusive: 28.1%
Cc1ccc(C2=Nc3ccccc3N=C(c3ccco3)C2)c(O)c1 | inactive: 0.811%
OC(CN1CC=C(/C=C/c2ccc(Br)cc2)CC1)c1ccccc1 (stereo not given) | inconclusive: 34.5%
O=C(COc1ccc(Br)cc1)NC(=S)Nc1ccccc1N1CCOCC1 | inactive: 0.542%
C[C@@H](NC(=O)OC(C)(C)C)c1nnc(S(=O)(=O)Cc2ccccc2)o1 | inconclusive: 31.9%
CCCCn1c(N)c(N(CC(C)C)C(=O)c2ccc(OC)c(S(=O)(=O)N3CCOCC3)c2)c(=O)[nH]c1=O | inconclusive: 34.3%
CCCc1cc(C(=O)OC)c(NC(=O)CCCC(=O)O)s1 | inactive: 0.14%
O=P(c1ccccc1)(c1ccccc1)c1nc(-c2ccccc2)oc1N1CCOCC1 | inactive: 0.842%
C#CCOCCOCCOCCNc1nc(N2CCN(C(=O)CCCCCCCCCCNC(=O)[C@H]([C@@H](C)CC)n3cc(CCCCCN)nn3)CC2)nc(N2CCN(C(=O)CCCCCCCCCCNC(=O)[C@@H]([C@H](C)O)n3cc(C)nn3)CC2)n1 | inconclusive: 26.9%
COC(=O)c1cc(NC(=O)CN(c2ccc(OC)cc2)S(=O)(=O)c2ccc(F)cc2)ccc1Cl | inconclusive: 27.7%
Cc1ccc(S(=O)(=O)c2nnn3c2nc(NCCCN2CCCC2=O)c2ccccc23)cc1C | inconclusive: 63.3%
Cc1ccccc1CN1CCN(CCCc2ccccc2)C(CCO)C1 (stereo not given) | inconclusive: 32.5%
O=C(/C=C/Nc1ccccc1O)c1ccco1 | inconclusive: 109%
CC(C)C(=O)NC(=S)N(Cc1ccccc1)Cc1ccccc1 | inconclusive: 33.4%
CC1=NC(C)(C)Cc2c(C)cccc21 | inactive: -0.447%
CC(C)C(C)(C#N)NC(=O)CSc1nnc(-c2ccccc2)o1 (stereo not given) | inconclusive: 26.4%
O=C(Nc1cc([N+](=O)[O-])ccc1O)c1cccc(C(=O)Nc2cc([N+](=O)[O-])ccc2O)c1 | inconclusive: 40.4%
